Source: PubChem BioAssay AID504594 (Broad Institute, 2011)
Values joined by “and” are separate entries in the source; they are usually repeats but may differ in a detail not shown here. Identical values can stand only once. Out of some 2,000 compounds screened, fewer than 10 were called active.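 The calls were made as follows: active = growth inhibition of at least 75% in every replicate, which also brings the mean inhibition to 75% or more; inconclusive = mean inhibition 75% or more but some replicate under 75%; inactive = the rest.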 The list shows a part of the results.

assay: reduced viability of yeast carrying PfHsp90 – S. cerevisiae, BacTiter-Glo luminescence, antimalarial PfHsp90 inhibitor project, primary screen (AID 504594);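 also: 0% = DMSO neutral control wells and 100% = 20 µM radicicol control wells; higher value means stronger growth inhibition because the sign is flipped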; details: S. cerevisiae expressing PfHsp90, BacTiter-Glo growth, 48 h; at 9.4 µM; active compounds read high

Row | SMILES | growth inhibition
1 | CCN(CC)CCOC(=O)C(c1ccccc1)c1ccccc1 | inactive: -4.02%
2 | OC(CCCN1CCCCC1)(c1ccccc1)c1ccccc1 | inactive: -11.8%
3 | COc1ccccc1NC(=O)C12CCC(C)(C(=O)C1)C2(C)C (centres undefined) | inactive: 5.66%
4 | C[C@]12CC[C@@H]3c4ccc(OS(=O)(=O)O)cc4CC[C@H]3[C@@H]1CCC2=O | inactive: -9.49%
5 | COC1(C)CC2C(CC1OC(=O)c1cc([N+](=O)[O-])cc([N+](=O)[O-])c1)C2(C)C (centres undefined) | inactive: 63.1%
6 | COc1ccc(CCn2c(C)nc3c(c(=O)c4ccccc4n3C)c2=O)cc1 | inactive: -0.711%
7 | Cc1ccc(S(=O)(=O)NC(=O)NN2CCCCCC2)cc1 | inactive: -10.7%
8 | COc1ccc(O)c(N)c1 | inactive: 12.8%
9 | S=C(c1ccc2c(c1)OCO2)N1CCCCC1 | inactive: -3.12%
10 | COc1cc2c3c(c1)C(C)CC(C)(C)N3C(=O)C2=O (centres undefined) | inactive: 11.5%
11 | COc1ccc(C(=O)NCc2cccnc2)cc1 | inactive: 6.25%
12 | CC(=O)Nc1ccccc1O | inactive: 4.24%
13 | O=c1cc(Cn2ccnc2)c2cc3c(cc2o1)CCC3 | inactive: -2.19%
14 | O=c1oc2c(CN3CCN(CCO)CC3)c(O)ccc2cc1-c1ccccn1 | inactive: -12.8%
15 | CCOC(=O)c1cnc2ccc(C(=O)OC)cc2c1Nc1ccc2c(c1)OCCO2 | inactive: 4.33%
16 | Cc1cccc(NC(=O)c2cc3ccccc3o2)c1 | inactive: -5.63%
17 | c1ccc(CN(CC2=NCCN2)c2ccccc2)cc1 | inactive: 21.1% and inactive: -3%
18 | O=C(NCCN1CCN(c2ccccc2)CC1)c1cccc(Br)c1 | inactive: 1.95%
19 | CCOc1ccc(CCn2c(-c3ccco3)nc3ccccc3c2=O)cc1OCC | inactive: 19%
20 | CC(C)CN1CCN(Cc2ccc3ncccc3c2)CC1CCO (centres undefined) | inactive: -15.2%
21 | COc1ccc(/C=C2\CCn3c2nc2cc(C(=O)O)ccc2c3=O)cc1OC | inactive: -8.43%
22 | CC(=O)OCC(=O)[C@H]1CC[C@H]2[C@@H]3CCC4=CC(=O)CC[C@]4(C)[C@H]3CC[C@]12C | inactive: -0.528%
23 | CCOC(=O)Cn1c(C)cc(=O)c2ccccc21 | inactive: 16.7%
24 | COc1cc2nc(-c3ccccc3)nc(N3CCCC3)c2cc1OC | inactive: 0.0822%
25 | O=c1[nH]c(Cc2ccccc2)nc2c1oc1ccccc12 | inactive: 6.81%

Row | SMILES | growth inhibition
26 | C#C[C@]1(O)CC[C@H]2[C@@H]3CCC4=CC(=O)CC[C@@H]4[C@H]3CC[C@@]21CC | inactive: -2.31%
27 | O=C(NO)c1ccccc1O | inactive: 1.98%
28 | CC(C)C[C@H]1C(=O)N2CCC[C@H]2[C@]2(O)O[C@](NC(=O)[C@@H]3C=C4c5cccc6[nH]c(Br)c(c56)CC4N(C)C3)(C(C)C)C(=O)N12 (some centres undefined) | inactive: 7.24%
29 | CC(=O)OCC(=O)[C@@]1(OC(C)=O)[C@@H](C)C[C@H]2[C@@H]3C[C@H](F)C4=CC(=O)C=C[C@]4(C)[C@@]3(F)[C@@H](O)C[C@@]21C | inactive: -34.4%
30 | CC(N=C(NC#N)Nc1ccncc1)C(C)(C)C (centres undefined) | inactive: 2.75%
31 | COc1ccc(CN(C)CCc2ccccn2)cc1OC | inactive: 5.69%
32 | S=C(NCc1ccccc1)NCc1cccc(CNC(=S)NCc2ccccc2)c1 | inactive: 0.496%
33 | Oc1[nH]c2ccccc2c1N=Nc1ccccc1 | inactive: -5.94%
34 | C=CCn1c(N2CCCCCC2)nc2c1c(=O)n(C)c(=O)n2C | inactive: 0.16%
35 | CN1CCCC(OC(=O)c2ccc3c(c2)OCCO3)C1 (centres undefined) | inactive: -2.5%
36 | COC(=O)c1ccccc1NC(=O)c1ccc(COc2ccc3c(c2)CCC3)cc1 | inactive: -17.4%
37 | Cc1c2c(nc3c(C)cccc13)OC(C)C2 (centres undefined) | inactive: 8.19%
38 | CN(C)C(=O)Oc1ccc[n+](C)c1 | inactive: -2.14%
39 | CC(=O)CCc1c(C)c2cccc(C)c2[nH]c1=O | inactive: -14%
40 | COc1ccccc1OCC(O)COC(N)=O (centres undefined) | inactive: 13.2%
41 | COc1ccc2[nH]c(=O)c(CNC3CCCCC3)cc2c1 | inactive: -29%
42 | COc1cc2c(cc1OC)C(Cc1ccc(O)cc1)N(C)CC2 (centres undefined) | inactive: 2.11%
43 | O=C(c1ccc(O)cc1)c1ccc(O)cc1O | inactive: 3.52%
44 | COc1ccccc1C(=O)c1cc2ccc(O)cc2oc1=O | inactive: -16.8%
45 | Cc1ccc(S(=O)(=O)Oc2ccccc2/C=N/N=C(N)N)cc1 | inactive: 9.9%
46 | CCc1cc2c(=O)c(-c3ccc(F)cc3)c(C)oc2cc1OCC(=O)O | inactive: -0.0935%
47 | O=C(O)CP(=O)(O)O | inactive: -14%
48 | CNc1nc(N(C)C)nc(N(C)C)n1 | inactive: -1.75%
49 | COc1ccc(C(=O)/C=C/c2cc(C(=O)O)cc3c2OCOC3)c(O)c1 | inactive: 0.0828%
